Legend:
[1] = tested on: astrocytes isolated from the rat brain tissue; assay: Glucose uptake assay, astrocytes isolated from the tumor tissue; type: in vivo; details: astrocytes from brain tissue of GB-bearing xenograft rats; i.p. 7 days
Protocol: In vivo glioma model generation, study design, group assignment, drug dose and other relevant information are disclosed in the Example-5. In brief, Wistar rats were anesthetized and using a stereotaxic head frame 1×10^6 C6 glioma cells was injected at right striatum. The rats were monitored daily for signs of distress and death. Treatment with drugs was commenced 20 days after orthotopic implantation of glioma cells. The same study samples in Example-5 used to analyse the anti-Warburg effect.
Primary astrocytes were collected from the isolated brain tissues as described by Schildge, et aL. (J. Vis. Exp. (71), e50079). In brief, the brain tissues of all experimental groups were isolated, immediately after decapitation. The minced tissue was dissociated using 0.05% trypsin at 37° C. for 30 min. To isolate individual astrocytes, the cell suspension was passed through 40 µm strainer. At last, astrocytes were seeded at a density of 1.5×10^5 cells/cm^2 in 90% DMEM containing 10% FBS, and 4.5 g/L glucose. The astrocytes were cultured at 37° C. with 95% air and 5% CO2.
(§1) Glucose uptake assay was performed using Glucose Uptake-Glo kit (Promega, USA). The assay was performed according to the manufacturer's protocol, for both the cell lines and astrocytes isolated from the rat brain tissue.

[2] = tested on: rat brain tissue; assay: Western blotting and ELISA of brain tissue proteins; type: in vivo; details: i.p. 7 days
Protocol: Cell lysis and protein quantification. For protein isolation, 500 mg of brain tissues of all the experimental groups were washed with 0.9% NaCl, 5 times each, to remove contaminated blood and was fully grilled in liquid nitrogen. Two ml of RIPA protein extraction buffer (20 mM Tris-HCl (pH 7.5), 150 mM NaCl, 1 mM sodium ethylenediamine tetra acetate (EDTA), 1 mM EDTA, 1% NP-40, 1% sodium deoxycholate, 2.5 mM sodium pyrophosphate, 1 mM β-glycerophosphate, 1 mM Na3VO4, 1 μg/ml leupeptin) was added to the brain tissues, crushed and then centrifuged at 12000×g for 15 minutes at 40° C. The lysates were then collected, centrifuged again at 12000×g for 15 minutes at 40° C. The protein extract collected as a supernatant was then quantified using Bradford method.
Western blotting. Following quantification, 40-100 μg of the total protein were separated by sodium dodecyl sulphate polyacrylamide gel electrophoresis (SDS-PAGE) and then transferred onto polyvinylidene difluoride (PVDF) membrane (Millipore, Germany) by the wet transfer method. […] Each immune complex was detected by Enhanced Chemiluminescence (ECL) Substrate (Santa Cruz, Texas, USA) and was visualized by the Chem-doc (Pearl® Trilogy/LI-COR, USA). Quantitative analysis for Western blot was made by ImageJ® software. […]

[3] = tested on: HEK293T (Human Embryonic Kidney) cells; assay: Trypan blue exclusion cytotoxicity on normal cell line; type: cell-based; details: treated at IC50 values determined in U87MG and C6, 24 hours
Protocol: Cytotoxicity on a normal cell line.
Furthermore, to check for the cytotoxicity of the drugs, a trypan blue dye exclusion assay was performed on a normal cell line, HEK293T, using the IC50 values of each drug, individually and in combination, as determined in U87MG and C6 cells and shown in Table 2.

[4] = tested on: human hepatocellular carcinoma (HepG2) cells; assay: MTT cell viability assay, HepG2; type: cell-based; details: 24 hours
Protocol: Cell lines and culture conditions. A human hepatocellular carcinoma (HepG2) and ovarian cancer (SKOV3) cells were obtained from National Centre for Cell Science (NCCS), Pune, India. The cells HepG2 and SKOV3 were sub-cultured in Eagle's Minimum Essential Medium (EMEM) and McCoy's 5a supplemented with 10% FBS at 5% CO2 and 37° C. At 85% confluence, the cells were harvested using 0.25% trypsin and seeded in 25 cm^2 flasks, 96 well, and 6-well plates, according to the experiment being performed. The cells were allowed to attach 70% to the surface prior to treatment. A stock solution of all the drugs (10 mg/ml) was made in distilled H2O and diluted to the required concentrations. Suspensions were aspirated 10 times before treatment. Cells treated with vehicle control were used as a control.
Cell viability assay. HepG2 and SKOV3 cells (5×10^3 cells/ml) were seeded in 96-well plates and exposed to different individual-drug treated groups with varying concentrations (0, 10, 40, 80, 120, and 160 μM) for a period of 24 hours. The individual-treated groups include Group I: SOR/CPL-treated HepG2 and SKOV3 cells respectively; Group II: MET-treated HepG2 and SKOV3 cells; Group III: EGCG-treated HepG2 and SKOV3 cells and Group IV: SOR+MET+EGCG and CPL+MET+EGCG treated HepG2 and SKOV3 cells respectively.

[5] = tested on: C6 rat GB cell line; assay: Glucose uptake assay, C6; type: cell-based
Protocol: (§2) Human GB cell line, U-87 MG and rat glioma cell line C6 were obtained from National Centre for Cell Science (NCCS), Pune, India. The cells were sub-cultured in Dulbecco's Modified Eagle's Medium (DMEM) supplemented with 10% FBS at 5% CO2 and 37° C. On reaching 85% confluence, the cells were harvested using 0.25% trypsin and used accordingly. For the treatment, the stock solution (10 mM) of each drug (Temozolomide (T), metformin (M), epigallocatechin gallate (E)) was made with sterile water and were further diluted using serum-free medium to arrive at the required concentrations. Suspensions were aspirated 10 times before treatment. Cells treated with vehicle control were used as a control.
as §1

[6] = tested on: Ki67; assay: Immunohistochemistry of tumor sections, Ki67; type: in vivo, rat; details: i.p. 7 days; tumor-control 36.73%
Protocol: Immunohistochemistry. For immunohistochemistry (IHC) analysis, 4 μm thick tissue sections were deparaffinized in xylene and hydrated by immersing in a series of graded ethanol concentration (100%, 95%, 75% and 50%). Endogenous peroxidase activity was blocked by incubating sections in 3% H2O2 solution prepared in methanol at room temperature for 10 minutes and were washed with PBS twice for 5 minutes each. Antigen retrieval was performed by immersing the slides in 300 ml of retrieval buffer (10 mM citrate buffer, pH 6.0) for one hour at 100° C. and were rinsed twice in PBS. Sections were then incubated with approximately 100 μl diluted primary antibodies of Ki67 (1:100 dilution, Elabscience, Wuhan, China) and Vascular Endothelial Growth Factor (VEGF) (1:100 dilution, Elabscience, Wuhan, China) for 30 minutes at room temperature. The slides were then washed twice with PBS and were then incubated with approximately 100 μl of diluted secondary antibody (Cat No. E-IR-R213, Elabscience, Wuhan, China) at room temperature for 30 minutes. Slides were then washed in PBS for 5 minutes, followed by incubation with approximately 100 μl diluted Horse Radish Peroxidase (HRP) conjugate for 30 minutes. […] The staining intensities were quantified using IHC Profiler, a plugin in ImageJ software, to determine the H-score (Histo score).

[7] = tested on: U-87 MG Human GB cell line; assay: Glucose uptake assay, U-87 MG; type: cell-based
Protocol: as §2, §1

Structure (SMILES): CN(C)C(=N)NC(=N)N.Cl [MET, 3-(diaminomethylidene)-1,1-dimethylguanidine; hydrochloride]
- glucose uptake [1]: reduced glucose uptake significantly
- levels of pAKT1 [2]: significantly reduced
- levels of pmTOR [2]: significantly reduced
- toxicity in normal HEK293T cells [3]: significant reduction in toxicity
- cell viability (MTT), in words [4]: reduction in cell viability in a dose-dependent fashion
- glucose uptake [5]: reduced glucose uptake significantly
- Ki67 nuclear positivity rate [6]: 18.36%
- glucose uptake [7]: reduced glucose uptake significantly
